In article PMC11579010:
These are yes or no findings as the source states them, for the method shown. In cells and extracts the contact can be indirect. A yes stands for co-enrichment or nearness to the bait. Other partners may have been found.

Chains of the proteins cited; added tags and fusions are not shown. Residues count along the entry.
UniProt Q08345, residues 19-913: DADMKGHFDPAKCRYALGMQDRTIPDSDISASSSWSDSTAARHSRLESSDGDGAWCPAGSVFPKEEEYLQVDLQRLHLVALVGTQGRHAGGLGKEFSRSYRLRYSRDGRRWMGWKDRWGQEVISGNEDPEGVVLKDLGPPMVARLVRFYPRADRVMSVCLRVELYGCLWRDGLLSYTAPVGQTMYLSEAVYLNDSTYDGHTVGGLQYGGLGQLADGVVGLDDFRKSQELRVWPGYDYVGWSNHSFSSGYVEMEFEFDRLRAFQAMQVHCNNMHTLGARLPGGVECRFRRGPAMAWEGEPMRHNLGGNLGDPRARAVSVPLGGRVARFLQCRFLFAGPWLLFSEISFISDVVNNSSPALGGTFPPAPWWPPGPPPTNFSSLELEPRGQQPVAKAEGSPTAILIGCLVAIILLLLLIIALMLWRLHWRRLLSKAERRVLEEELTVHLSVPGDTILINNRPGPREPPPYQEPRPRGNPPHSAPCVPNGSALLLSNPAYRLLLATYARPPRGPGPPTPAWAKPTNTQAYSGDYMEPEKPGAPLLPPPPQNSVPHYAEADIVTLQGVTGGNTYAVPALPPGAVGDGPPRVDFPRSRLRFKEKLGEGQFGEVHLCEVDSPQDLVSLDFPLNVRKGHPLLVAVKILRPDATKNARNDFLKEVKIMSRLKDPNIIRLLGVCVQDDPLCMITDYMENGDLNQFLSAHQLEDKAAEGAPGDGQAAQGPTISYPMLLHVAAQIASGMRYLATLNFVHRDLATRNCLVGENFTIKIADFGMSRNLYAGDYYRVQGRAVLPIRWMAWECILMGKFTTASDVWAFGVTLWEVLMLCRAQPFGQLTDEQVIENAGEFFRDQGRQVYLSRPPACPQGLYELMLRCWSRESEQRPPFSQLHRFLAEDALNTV
UniProt P62993: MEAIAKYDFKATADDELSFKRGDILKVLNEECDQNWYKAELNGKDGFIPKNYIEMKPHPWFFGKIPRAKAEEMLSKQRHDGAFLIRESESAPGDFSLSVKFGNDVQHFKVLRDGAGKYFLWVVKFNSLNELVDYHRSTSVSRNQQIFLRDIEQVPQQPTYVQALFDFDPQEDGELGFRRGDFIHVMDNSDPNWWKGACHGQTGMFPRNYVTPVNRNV

Target: Discoidin domain receptor 1 (DDR1), in cervical cancer cells (human (in SiHa cervical cancer cells; endogenous or oeDDR1 not stated)) (UniProt Q08345)
Assay: affinity purification with mass spectrometry; co-IP of DDR1 (IgG as control) from cervical cancer cells, outcome subjected to mass spectrometry; hits crossed with HitPredict

Row | binding | Molecule
1 | binds | Growth factor receptor bound protein 2 (GRB2), in cervical cancer cells (from UniProt P62993 1-217)
2 | binds | SHC Adaptor Protein 1 (SHC1), in cervical cancer cells (protein, UniProt P29353 1-583) MDLLPPKPKYNPLRNESLSSLEEGASGSTPPEELPSPSASSLGPILPPLPGDDSPTTLCSFFPRMSNLRLANPAGGRPGSKGEPGRAADDGEGIVGAAMPDSGPLPLLQDMNKLSGGGGRRTRVEGGQLGGEEWTRHGSFVNKPTRGWLHPNDKVMGPGVSYLVRYMGCVEVLQSMRALDFNTRTQVTREAISLVCEAVPGAKGATRRRKPCSRPLSSILGRSNLKFAGMPITLTVSTSSLNLMAADCKQIIANHHMQSISFASGGDPDTAEYVAYVAKDPVNQRACHILECPEGLAQDVISTIGQAFELRFKQYLRNPPKLVTPHDRMAGFDGSAWDEEEEEPPDHQYYNDFPGKEPPLGGVVDMRLREGAAPGAARPTAPNAQTPSHLGATLPVGQPVGGDPEVRKQMPPPPPCPGRELFDDPSYVNVQNLDKARQAVGGAGPPNPAINGSAPRDLFDMKPFEDALRVPPPPQSVSMAEQLRGEPWFHGKLSRREAEALLQLNGDFLVRESTTTPGQYVLTGLQSGQPKHLLLVDPEGVVRTKDHRFESVSHLISYHMDNHLPIISAGSELCLQQPVERKL
